For this test, the target named is recombinant mouse full-length prion protein, MoPrP (23-231), unexposed (mouse) (UniProt P04925). The experiment in a line: Rayleigh light scattering (photo-aggregation); both purified.

No constants are given. Whether binding was seen depends on the method and setting.

Turning to “recombinant mouse full-length prion protein, MoPrP (23-231), unexposed (from UniProt P04925 23-231)”, the binding result was “no binding (condition: in 3 M urea and 1 M GdmCl)”.
